Measurements taken from the supplement of paper PMC10849652.
The other results are listed elsewhere or left out.

The chains behind the UniProt entries cited, without tags or fusion partners. Where a name states a change or a piece, a line headed by the entry shows the natural chain unless it says otherwise.
UniProt Q6PII5: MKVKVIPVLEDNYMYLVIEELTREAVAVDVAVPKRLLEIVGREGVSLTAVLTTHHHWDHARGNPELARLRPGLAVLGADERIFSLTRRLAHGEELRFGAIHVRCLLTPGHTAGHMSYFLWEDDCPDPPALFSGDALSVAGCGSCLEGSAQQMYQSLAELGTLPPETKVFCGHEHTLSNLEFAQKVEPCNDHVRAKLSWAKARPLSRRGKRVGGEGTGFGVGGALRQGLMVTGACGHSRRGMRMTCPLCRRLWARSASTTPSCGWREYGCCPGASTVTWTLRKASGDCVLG
UniProt P51858: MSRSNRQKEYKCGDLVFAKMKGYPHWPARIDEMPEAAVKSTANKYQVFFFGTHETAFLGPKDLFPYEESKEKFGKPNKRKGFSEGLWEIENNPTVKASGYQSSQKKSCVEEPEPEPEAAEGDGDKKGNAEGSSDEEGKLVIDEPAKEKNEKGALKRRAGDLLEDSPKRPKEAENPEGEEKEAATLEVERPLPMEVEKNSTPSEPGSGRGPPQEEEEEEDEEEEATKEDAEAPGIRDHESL
UniProt O94992, whole entry, looked up: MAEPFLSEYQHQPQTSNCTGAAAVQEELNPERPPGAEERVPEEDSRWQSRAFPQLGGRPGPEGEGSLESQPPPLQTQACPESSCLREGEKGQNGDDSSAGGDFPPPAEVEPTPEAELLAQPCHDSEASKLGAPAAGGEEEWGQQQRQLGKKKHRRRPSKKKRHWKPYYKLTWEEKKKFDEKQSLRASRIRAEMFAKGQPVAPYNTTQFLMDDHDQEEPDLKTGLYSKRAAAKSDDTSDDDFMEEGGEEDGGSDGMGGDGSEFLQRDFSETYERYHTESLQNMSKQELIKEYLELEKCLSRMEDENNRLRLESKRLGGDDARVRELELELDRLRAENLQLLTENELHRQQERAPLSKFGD
UniProt Q13889: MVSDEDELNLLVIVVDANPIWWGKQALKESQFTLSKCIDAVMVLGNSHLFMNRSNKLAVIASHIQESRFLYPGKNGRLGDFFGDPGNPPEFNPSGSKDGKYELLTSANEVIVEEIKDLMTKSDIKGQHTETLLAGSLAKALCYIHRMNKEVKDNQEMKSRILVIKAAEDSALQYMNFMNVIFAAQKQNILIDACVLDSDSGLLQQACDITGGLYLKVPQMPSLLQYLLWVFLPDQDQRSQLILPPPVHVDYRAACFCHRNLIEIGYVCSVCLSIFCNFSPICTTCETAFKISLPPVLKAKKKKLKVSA
UniProt P10412, whole entry, looked up: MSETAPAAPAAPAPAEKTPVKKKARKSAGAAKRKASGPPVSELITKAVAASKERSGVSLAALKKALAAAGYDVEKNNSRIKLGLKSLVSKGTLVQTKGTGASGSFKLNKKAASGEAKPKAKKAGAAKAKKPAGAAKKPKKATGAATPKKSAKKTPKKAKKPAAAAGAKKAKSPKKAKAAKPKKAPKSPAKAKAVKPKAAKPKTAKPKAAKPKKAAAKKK
UniProt P12081: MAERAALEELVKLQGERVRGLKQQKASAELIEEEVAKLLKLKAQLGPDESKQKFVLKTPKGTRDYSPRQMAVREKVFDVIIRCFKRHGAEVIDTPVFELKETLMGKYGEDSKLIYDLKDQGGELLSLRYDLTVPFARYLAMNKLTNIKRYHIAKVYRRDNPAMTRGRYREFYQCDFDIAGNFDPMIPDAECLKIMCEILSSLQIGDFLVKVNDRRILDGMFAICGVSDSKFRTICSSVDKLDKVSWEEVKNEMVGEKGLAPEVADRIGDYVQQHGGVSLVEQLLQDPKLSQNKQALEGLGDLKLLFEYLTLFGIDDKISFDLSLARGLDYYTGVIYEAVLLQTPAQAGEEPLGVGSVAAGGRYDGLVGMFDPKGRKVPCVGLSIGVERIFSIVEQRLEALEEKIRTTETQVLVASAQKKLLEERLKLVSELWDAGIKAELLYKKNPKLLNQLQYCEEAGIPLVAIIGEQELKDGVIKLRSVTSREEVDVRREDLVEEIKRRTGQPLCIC
UniProt Q9NYZ3: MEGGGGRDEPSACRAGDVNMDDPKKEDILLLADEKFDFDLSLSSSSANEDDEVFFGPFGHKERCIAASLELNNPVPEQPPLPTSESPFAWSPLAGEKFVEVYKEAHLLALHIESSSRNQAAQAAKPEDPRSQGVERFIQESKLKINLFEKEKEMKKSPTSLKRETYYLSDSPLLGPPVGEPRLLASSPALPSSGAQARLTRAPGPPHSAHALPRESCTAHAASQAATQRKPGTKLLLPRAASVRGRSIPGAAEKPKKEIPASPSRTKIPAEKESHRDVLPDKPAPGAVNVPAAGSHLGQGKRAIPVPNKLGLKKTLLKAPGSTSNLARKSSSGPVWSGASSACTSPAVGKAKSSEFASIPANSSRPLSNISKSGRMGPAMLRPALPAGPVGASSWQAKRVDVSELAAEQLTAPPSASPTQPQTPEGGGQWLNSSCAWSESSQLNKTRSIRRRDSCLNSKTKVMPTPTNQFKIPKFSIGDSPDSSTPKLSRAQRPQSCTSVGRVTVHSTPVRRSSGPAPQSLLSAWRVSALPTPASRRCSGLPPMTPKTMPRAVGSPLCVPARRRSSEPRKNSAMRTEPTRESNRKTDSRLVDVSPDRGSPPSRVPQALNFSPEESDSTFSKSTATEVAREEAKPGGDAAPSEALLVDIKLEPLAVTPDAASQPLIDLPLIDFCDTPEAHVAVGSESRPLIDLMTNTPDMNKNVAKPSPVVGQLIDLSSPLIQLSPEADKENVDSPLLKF
UniProt O15379: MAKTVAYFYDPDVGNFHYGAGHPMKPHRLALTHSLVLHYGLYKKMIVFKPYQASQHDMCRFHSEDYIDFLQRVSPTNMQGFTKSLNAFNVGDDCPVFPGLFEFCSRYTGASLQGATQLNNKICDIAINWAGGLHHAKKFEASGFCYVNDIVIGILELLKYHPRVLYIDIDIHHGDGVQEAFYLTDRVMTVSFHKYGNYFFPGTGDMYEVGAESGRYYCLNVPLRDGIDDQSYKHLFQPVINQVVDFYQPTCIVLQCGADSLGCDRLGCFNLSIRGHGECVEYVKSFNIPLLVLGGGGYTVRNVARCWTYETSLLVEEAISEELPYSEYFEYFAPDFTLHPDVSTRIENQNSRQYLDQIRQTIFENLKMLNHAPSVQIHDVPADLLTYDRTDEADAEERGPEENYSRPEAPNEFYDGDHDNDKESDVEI
UniProt Q9BX10: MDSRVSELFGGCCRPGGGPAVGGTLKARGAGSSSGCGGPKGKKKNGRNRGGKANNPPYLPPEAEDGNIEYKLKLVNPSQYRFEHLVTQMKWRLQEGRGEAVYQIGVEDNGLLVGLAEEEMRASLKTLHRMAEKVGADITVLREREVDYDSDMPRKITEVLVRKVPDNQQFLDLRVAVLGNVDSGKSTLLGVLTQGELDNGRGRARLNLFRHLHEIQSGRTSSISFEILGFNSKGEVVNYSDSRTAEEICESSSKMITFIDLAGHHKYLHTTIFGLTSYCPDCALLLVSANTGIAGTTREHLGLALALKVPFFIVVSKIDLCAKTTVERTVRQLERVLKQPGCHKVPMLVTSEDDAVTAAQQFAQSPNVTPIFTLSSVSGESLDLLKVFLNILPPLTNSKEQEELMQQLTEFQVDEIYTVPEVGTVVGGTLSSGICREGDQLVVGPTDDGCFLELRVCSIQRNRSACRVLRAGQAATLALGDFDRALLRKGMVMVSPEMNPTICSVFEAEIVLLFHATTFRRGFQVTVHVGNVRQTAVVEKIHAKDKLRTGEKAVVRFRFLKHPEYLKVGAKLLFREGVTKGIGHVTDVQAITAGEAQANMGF
UniProt P51610: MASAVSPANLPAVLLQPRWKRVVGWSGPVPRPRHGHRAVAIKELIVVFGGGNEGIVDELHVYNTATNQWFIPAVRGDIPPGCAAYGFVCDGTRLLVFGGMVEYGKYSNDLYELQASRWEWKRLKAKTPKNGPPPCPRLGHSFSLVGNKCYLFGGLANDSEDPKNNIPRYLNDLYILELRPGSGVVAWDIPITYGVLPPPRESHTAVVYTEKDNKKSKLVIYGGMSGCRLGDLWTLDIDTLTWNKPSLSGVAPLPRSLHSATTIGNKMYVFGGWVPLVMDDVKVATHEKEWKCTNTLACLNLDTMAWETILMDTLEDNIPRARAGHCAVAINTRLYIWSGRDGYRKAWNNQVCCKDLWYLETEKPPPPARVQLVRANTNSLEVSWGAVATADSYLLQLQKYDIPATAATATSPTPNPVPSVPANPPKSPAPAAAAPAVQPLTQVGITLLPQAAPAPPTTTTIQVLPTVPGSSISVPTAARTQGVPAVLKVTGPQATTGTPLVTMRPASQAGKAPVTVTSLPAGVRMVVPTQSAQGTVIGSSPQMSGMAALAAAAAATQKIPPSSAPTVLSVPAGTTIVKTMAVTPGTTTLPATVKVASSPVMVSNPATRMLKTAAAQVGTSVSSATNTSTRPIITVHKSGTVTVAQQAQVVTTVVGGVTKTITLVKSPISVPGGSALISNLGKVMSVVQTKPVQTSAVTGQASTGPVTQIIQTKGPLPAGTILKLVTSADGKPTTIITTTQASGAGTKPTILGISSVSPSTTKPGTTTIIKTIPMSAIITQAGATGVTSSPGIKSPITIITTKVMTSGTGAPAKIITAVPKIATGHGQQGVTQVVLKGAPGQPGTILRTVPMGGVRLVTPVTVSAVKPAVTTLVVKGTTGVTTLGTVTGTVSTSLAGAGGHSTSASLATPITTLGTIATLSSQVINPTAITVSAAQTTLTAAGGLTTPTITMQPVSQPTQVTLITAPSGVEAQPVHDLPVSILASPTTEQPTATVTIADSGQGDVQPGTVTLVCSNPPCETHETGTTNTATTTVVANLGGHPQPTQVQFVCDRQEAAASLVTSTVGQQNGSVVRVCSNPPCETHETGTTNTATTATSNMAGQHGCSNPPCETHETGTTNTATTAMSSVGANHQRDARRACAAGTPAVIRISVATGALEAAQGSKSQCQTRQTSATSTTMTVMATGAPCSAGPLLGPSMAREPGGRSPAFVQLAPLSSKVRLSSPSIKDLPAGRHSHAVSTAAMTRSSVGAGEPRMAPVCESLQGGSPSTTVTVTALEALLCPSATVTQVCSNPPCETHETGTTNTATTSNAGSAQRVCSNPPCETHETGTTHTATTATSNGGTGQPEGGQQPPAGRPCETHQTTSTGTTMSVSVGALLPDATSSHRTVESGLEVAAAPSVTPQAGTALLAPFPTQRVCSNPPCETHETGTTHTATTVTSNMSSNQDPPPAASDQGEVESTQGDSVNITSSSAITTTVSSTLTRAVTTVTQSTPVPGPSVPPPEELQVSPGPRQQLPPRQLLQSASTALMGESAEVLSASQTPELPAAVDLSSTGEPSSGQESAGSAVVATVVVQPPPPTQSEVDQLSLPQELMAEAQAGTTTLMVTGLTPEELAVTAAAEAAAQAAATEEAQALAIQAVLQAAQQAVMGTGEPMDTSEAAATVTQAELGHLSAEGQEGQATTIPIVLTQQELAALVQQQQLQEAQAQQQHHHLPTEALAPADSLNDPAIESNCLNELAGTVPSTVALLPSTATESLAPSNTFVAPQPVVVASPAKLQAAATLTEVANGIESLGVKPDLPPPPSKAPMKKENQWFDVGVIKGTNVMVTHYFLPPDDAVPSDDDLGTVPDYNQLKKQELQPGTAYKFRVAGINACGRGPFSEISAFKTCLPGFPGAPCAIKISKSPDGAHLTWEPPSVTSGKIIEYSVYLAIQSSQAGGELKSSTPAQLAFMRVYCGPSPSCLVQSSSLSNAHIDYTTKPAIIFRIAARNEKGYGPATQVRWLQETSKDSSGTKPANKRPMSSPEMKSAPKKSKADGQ
UniProt P29084: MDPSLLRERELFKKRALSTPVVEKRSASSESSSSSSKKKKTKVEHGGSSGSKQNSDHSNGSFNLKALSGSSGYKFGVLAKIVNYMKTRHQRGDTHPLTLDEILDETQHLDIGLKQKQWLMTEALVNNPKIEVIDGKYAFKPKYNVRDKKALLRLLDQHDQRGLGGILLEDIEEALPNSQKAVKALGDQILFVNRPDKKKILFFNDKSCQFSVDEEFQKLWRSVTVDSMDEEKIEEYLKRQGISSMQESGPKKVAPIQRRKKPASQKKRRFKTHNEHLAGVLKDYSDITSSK
UniProt P09211: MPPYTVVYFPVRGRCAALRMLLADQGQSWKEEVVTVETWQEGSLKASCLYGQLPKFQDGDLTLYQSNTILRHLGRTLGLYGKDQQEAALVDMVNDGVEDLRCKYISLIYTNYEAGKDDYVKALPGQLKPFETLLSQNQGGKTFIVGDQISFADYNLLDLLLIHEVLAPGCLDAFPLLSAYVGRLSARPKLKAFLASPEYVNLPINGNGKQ
UniProt Q92522: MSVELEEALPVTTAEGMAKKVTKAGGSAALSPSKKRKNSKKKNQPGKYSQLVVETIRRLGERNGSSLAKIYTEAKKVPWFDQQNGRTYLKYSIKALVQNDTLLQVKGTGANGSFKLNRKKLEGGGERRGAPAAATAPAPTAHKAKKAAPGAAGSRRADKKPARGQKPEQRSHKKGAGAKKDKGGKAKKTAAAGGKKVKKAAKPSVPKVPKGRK

How the values were obtained:
Experiment in all cases: log2 fold change, soluble protein after heating vs DMSO (PISA); higher = thermal stabilisation; K562 cells, 10 uM, 30 min; active = over 0.2 and 3.5 SD of the protein, either way, in both replicates (recomputed)
saracatinib = compound: CN1CCN(CCOc2cc(OC3CCOCC3)c3c(Nc4c(Cl)ccc5c4OCO5)ncnc3c2)CC1 [saracatinib]
Outline: (§1)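 K562 cells at 2×10^6 cells/mL were treated for 30 min with 10 μM compound, and aliquots were heated for 3 min over 48°C-58°C before pooling. Extraction used PBS with 0.5% NP-40 at 4°C, and soluble protein was the supernatant after 21,000xg for 90 min, measured by TMTpro 16plex LC-MS/MS with channel sums equalised. Thermal stability values, relative to control samples and from duplicates, are log2 fold changes.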

sotrastaurin = compound: CN1CCN(c2nc(C3=C(c4c[nH]c5ccccc45)C(=O)NC3=O)c3ccccc3n2)CC1 [sotrastaurin]
Outline: as §1

alvocidib = compound: CN1CC[C@H](c2c(O)cc(O)c3c(=O)cc(-c4ccccc4Cl)oc23)[C@H](O)C1 [alvocidib]
Outline: as §1

[1] = compound: CNC(=O)C1=CC=CC=C1NC2=NC(=NC=C2Cl)NC3=C(C=C(C=C3)N4CCOCC4)OC
Outline: as §1

defactinib = compound: CNC(=O)c1ccc(Nc2ncc(C(F)(F)F)c(NCc3nccnc3N(C)S(C)(=O)=O)n2)cc1 [defactinib]
Outline: as §1

[2] = compound: CNc1nc(-c2ccc3c(N)n[nH]c3c2)cc(N2C[C@@H](C(=O)NC3CCCCC3)CC[C@H]2C)n1
Outline: as §1

[3] = compound: COC(=O)[C@H](CCSC)NC(=O)C1=C(C=C(C=C1)NC[C@H](CS)N)C2=CC=CC=C2
Outline: as §1

[4] = compound: COC1=CC=C(C=C1)CN2C=CC3=C2C=C(C=C3)C(=O)NO
Outline: as §1

filanesib = compound: CON(C)C(=O)N1N=C(c2cc(F)ccc2F)S[C@@]1(CCCN)c1ccccc1 [filanesib]
Outline: as §1

zotarolimus = compound: CO[C@H]1C[C@@H]2CC[C@@H](C)[C@@](O)(O2)C(=O)C(=O)N2CCCC[C@H]2C(=O)O[C@H]([C@H](C)C[C@@H]2CC[C@H](n3cnnn3)[C@H](OC)C2)CC(=O)[C@H](C)/C=C(\C)[C@@H](O)[C@@H](OC)C(=O)[C@H](C)C[C@H](C)/C=C/C=C/C=C/1C [zotarolimus]
Outline: as §1

idasanutlin = compound: COc1cc(C(=O)O)ccc1NC(=O)[C@@H]1N[C@@H](CC(C)(C)C)[C@](C#N)(c2ccc(Cl)cc2F)[C@H]1c1cccc(Cl)c1F [idasanutlin]
Outline: as §1

alisertib = compound: COc1cc(Nc2ncc3c(n2)-c2ccc(Cl)cc2C(c2c(F)cccc2OC)=NC3)ccc1C(=O)O [alisertib]
Outline: as §1

gefitinib = compound: COc1cc2ncnc(Nc3ccc(F)c(Cl)c3)c2cc1OCCCN1CCOCC1 [gefitinib]
Outline: as §1

[5] = compound: COc1cccc2cc(-c3nc([C@H]4CC[C@H](C(=O)O)CC4)n4ncnc(N)c34)[nH]c12
Outline: as §1

Tubastatin A = compound: CN1CCc2c(c3ccccc3n2Cc2ccc(C(=O)NO)cc2)C1 [Tubastatin A]
Outline: as §1

rucaparib = compound: CNCc1ccc(-c2[nH]c3cc(F)cc4c3c2CCNC4=O)cc1 [rucaparib]
Outline: as §1

encorafenib = compound: COC(=O)N[C@@H](C)CNc1nccc(-c2cn(C(C)C)nc2-c2cc(Cl)cc(NS(C)(=O)=O)c2F)n1 [encorafenib]
Outline: as §1

[6] = compound: COc1cc2nc(-c3cc(F)ccc3O)nc(N[C@@H]3CNC[C@H]3C(C)(C)O)c2cc1OC
Outline: as §1

lapatinib = compound: CS(=O)(=O)CCNCc1ccc(-c2ccc3ncnc(Nc4ccc(OCc5cccc(F)c5)c(Cl)c4)c3c2)o1 [lapatinib]
Outline: as §1

pictilisib = compound: CS(=O)(=O)N1CCN(Cc2cc3nc(-c4cccc5[nH]ncc45)nc(N4CCOCC4)c3s2)CC1 [pictilisib]
Outline: as §1

Measured: log2 fold change

HAGHL isoform 2 (UniProt Q6PII5)
inactive: saracatinib 0.126 | sotrastaurin 0.002 | alvocidib -0.026 | [1] 0.033 | defactinib -0.133 | [2] 0 | [3] -0.074 | [4] 0.068 | filanesib -0.071 | zotarolimus 0.009 | idasanutlin 0.066 | alisertib -0.044 | gefitinib 0.038 | [5] -0.015

HDGF (UniProt P51858)
inactive: saracatinib 0.023 | sotrastaurin 0.029 | alvocidib -0.032 | Tubastatin A 0.012 | [1] -0.023 | defactinib -0.039 | rucaparib -0.073 | [2] -0.029 | encorafenib 0 | [3] 0.034 | [4] 0.044 | filanesib -0.019 | zotarolimus -0.001 | idasanutlin 0.005 | alisertib -0.025 | [6] -0.031 | gefitinib 0.009 | [5] 0.003 | lapatinib -0.018 | pictilisib 0.012

HEXIM1 (UniProt O94992)
inactive: saracatinib -0.042 | sotrastaurin 0.065 | alvocidib 0.074 | Tubastatin A -0.011 | [1] -0.061 | defactinib 0.073 | rucaparib 0.053 | [2] -0.042 | encorafenib -0.002 | [3] -0.049 | [4] -0.036 | filanesib 0.074 | zotarolimus 0.016 | idasanutlin 0.03 | alisertib -0.026 | [6] 0.094 | gefitinib -0.039 | [5] 0.01 | lapatinib -0.013 | pictilisib 0.06

GTF2H3 (UniProt Q13889)
inactive: saracatinib -0.099 | sotrastaurin -0.079 | Tubastatin A 0.124 | [1] 0.008 | defactinib 0.009 | rucaparib 0.09 | [2] -0.001 | encorafenib -0.073 | [3] 0.043 | [4] -0.031 | filanesib 0.062 | zotarolimus -0.04 | idasanutlin -0.077 | alisertib -0.155 | [6] 0.016 | gefitinib 0 | [5] 0.041 | lapatinib 0.056 | pictilisib -0.089

H1-4 (UniProt P10412)
inactive: saracatinib -0.22 | sotrastaurin -0.091 | alvocidib 0.269 | Tubastatin A 0.034 | [1] -0.002 | defactinib 0.311 | rucaparib 0.479 | [2] 0.121 | encorafenib 0.122 | [3] 0.032 | [4] -0.103 | filanesib 0.466 | zotarolimus -0.033 | idasanutlin 0.153 | alisertib -0.035 | [6] -0.031 | gefitinib 0.024 | [5] -0.335 | lapatinib 0.098 | pictilisib -0.142

HAGHL (UniProt Q6PII5)
inactive: saracatinib 0.059 | sotrastaurin 0.126 | alvocidib -0.015 | Tubastatin A 0.053 | [1] -0.002 | rucaparib 0.137 | [2] -0.016 | encorafenib 0.02 | [4] -0.008 | filanesib 0.042 | zotarolimus -0.001 | alisertib 0.071 | [6] 0.055 | [5] -0.07 | lapatinib -0.01

HARS (UniProt P12081)
inactive: saracatinib 0.031 | sotrastaurin 0.034 | alvocidib 0.012 | Tubastatin A -0.045 | [1] -0.038 | defactinib 0.005 | rucaparib -0.056 | [2] -0.035 | encorafenib -0.019 | [3] 0.053 | [4] -0.058 | filanesib -0.026 | zotarolimus -0.012 | idasanutlin -0.011 | alisertib -0.034 | [6] -0.009 | gefitinib 0.008 | [5] 0.016 | lapatinib -0.018 | pictilisib 0.01

GTSE1 (UniProt Q9NYZ3)
inactive: saracatinib 0.271 | sotrastaurin -0.016 | alvocidib 0.157 | Tubastatin A 0.045 | [1] 0.05 | defactinib 0.011 | rucaparib 0.3 | [2] 0.045 | encorafenib 0.003 | [3] -0.01 | [4] -0.201 | filanesib 0.303 | zotarolimus -0.085 | idasanutlin 0.111 | alisertib 0.105 | [6] 0.075 | gefitinib -0.007 | [5] -0.07 | lapatinib 0.091 | pictilisib -0.016

Looked up one by one from above (two):
HARS (UniProt P12081)
inactive: saracatinib 0.031 | sotrastaurin 0.034 | alvocidib 0.012 | Tubastatin A -0.045 | [1] -0.038 | defactinib 0.005 | rucaparib -0.056 | [2] -0.035 | encorafenib -0.019 | [3] 0.053 | [4] -0.058 | filanesib -0.026 | zotarolimus -0.012 | idasanutlin -0.011 | alisertib -0.034 | [6] -0.009 | gefitinib 0.008 | [5] 0.016 | lapatinib -0.018 | pictilisib 0.01

GTSE1 (UniProt Q9NYZ3)
inactive: saracatinib 0.271 | sotrastaurin -0.016 | alvocidib 0.157 | Tubastatin A 0.045 | [1] 0.05 | defactinib 0.011 | rucaparib 0.3 | [2] 0.045 | encorafenib 0.003 | [3] -0.01 | [4] -0.201 | filanesib 0.303 | zotarolimus -0.085 | idasanutlin 0.111 | alisertib 0.105 | [6] 0.075 | gefitinib -0.007 | [5] -0.07 | lapatinib 0.091 | pictilisib -0.016

The list continues:

HACD3 (UniProt Q9P035)
inactive: saracatinib -0.003 | sotrastaurin 0.009 | alvocidib -0.016 | Tubastatin A -0.024 | [1] 0.012 | defactinib 0.01 | rucaparib -0.055 | [2] -0.004 | encorafenib 0.069 | [3] 0.001 | [4] -0.037 | filanesib -0.016 | zotarolimus -0.074 | idasanutlin -0.044 | alisertib -0.019 | [6] 0.05 | gefitinib 0.034 | [5] 0.017 | lapatinib 0.008 | pictilisib 0

HDAC3 isoform 2 (UniProt O15379)
inactive: saracatinib -0.022 | sotrastaurin -0.039 | alvocidib 0.072 | Tubastatin A 0.04 | [1] -0.039 | defactinib -0.073 | rucaparib 0.074 | [2] 0.003 | encorafenib -0.067 | [3] -0.07 | [4] 0.017 | filanesib 0.048 | zotarolimus 0.077 | idasanutlin -0.025 | alisertib -0.093 | [6] 0.04 | gefitinib 0.089 | [5] 0.009 | lapatinib 0.061 | pictilisib 0.022

GTPBP2 (UniProt Q9BX10)
inactive: saracatinib -0.047 | sotrastaurin -0.053 | alvocidib -0.003 | Tubastatin A -0.006 | [1] -0.011 | defactinib 0.061 | rucaparib 0.053 | [2] 0.046 | encorafenib 0.062 | [3] -0.019 | [4] -0.01 | filanesib 0.022 | zotarolimus 0.062 | idasanutlin 0.048 | alisertib -0.035 | [6] 0.076 | gefitinib 0.098 | [5] -0.019 | lapatinib -0.084 | pictilisib -0.095

HCFC1 isoform 4 (UniProt P51610)
inactive: saracatinib -0.029 | sotrastaurin 0.014 | alvocidib -0.02 | Tubastatin A 0.006 | [1] 0.006 | defactinib 0.014 | rucaparib 0.025 | [2] -0.016 | encorafenib -0.007 | [3] -0.039 | [4] -0.003 | filanesib -0.011 | zotarolimus 0.01 | idasanutlin -0.088 | alisertib -0.046 | [6] 0.073 | gefitinib -0.035 | [5] 0.013 | lapatinib -0.02 | pictilisib 0.035

GTF2E2 (UniProt P29084)
inactive: saracatinib -0.103 | sotrastaurin -0.163 | Tubastatin A 0.054 | [1] 0.056 | defactinib -0.085 | rucaparib 0.03 | [2] 0.025 | encorafenib 0.145 | [3] -0.035 | [4] -0.014 | filanesib 0.034 | zotarolimus 0.027 | idasanutlin -0.03 | alisertib -0.027 | [6] 0 | gefitinib 0.009 | [5] -0.056 | lapatinib 0.022 | pictilisib 0.031

GSTP1 (UniProt P09211)
inactive: saracatinib -0.011 | sotrastaurin 0.053 | Tubastatin A -0.015 | [1] -0.001 | defactinib -0.033 | rucaparib -0.046 | [2] 0.02 | encorafenib -0.007 | [3] 0.027 | [4] -0.033 | filanesib -0.038 | zotarolimus 0.004 | idasanutlin -0.033 | alisertib -0.003 | [6] -0.003 | gefitinib 0.021 | [5] 0.069 | lapatinib -0.032 | pictilisib 0.035

H3-3A (UniProt P84243)
inactive: saracatinib -0.094 | sotrastaurin -0.356 | Tubastatin A 0.203 | [1] 0.002 | defactinib 0 | rucaparib 0.031 | [2] 0.189 | encorafenib 0.034 | [3] 0.102 | filanesib -0.187 | zotarolimus 0.009 | alisertib 0.098 | [6] 0.179 | gefitinib 0.035 | [5] -0.062 | lapatinib -0.042

GUK1 isoform 2 (UniProt Q16774)
inactive: saracatinib 0.001 | sotrastaurin -0.223 | Tubastatin A 0.064 | [1] 0.027 | defactinib -0.162 | rucaparib 0.175 | [2] 0.026 | encorafenib -0.079 | [3] 0 | [4] 0.215 | filanesib -0.005 | zotarolimus 0.022 | idasanutlin -0.04 | alisertib -0.048 | [6] 0.155 | gefitinib -0.05 | [5] -0.019 | lapatinib -0.001 | pictilisib 0.017

H1FX (UniProt Q92522)
inactive: saracatinib -0.054 | sotrastaurin -0.237 | Tubastatin A 0.093 | [1] 0.041 | defactinib 0.336 | rucaparib 0.219 | [2] 0.102 | encorafenib 0.121 | [3] 0.013 | [4] -0.116 | filanesib 0.112 | zotarolimus 0.049 | idasanutlin 0.161 | alisertib -0.147 | [6] 0.033 | gefitinib -0.044 | [5] -0.24 | lapatinib 0.133 | pictilisib -0.134
